Values from PubChem BioAssay AID1508597 (Cure First, 2020).
This is a random part of the about 2,100 reagents, in one setting of the screen. 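Calls flag viability under 80% in either arm, not effects specific to rucaparib; the reference for percent is not stated.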 Not stated in the record: the 100% reference.

Aim: 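Genes whose silencing sensitises or protects ovarian cancer cells against rucaparib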 (primary screen)
Cell system: human ovarian carcinoma lines grown from tumours: OCI-P5x (papillary serous) and OCI-C5x (clear cell)
Reagent: siRNA pool against human genes, 1.25 pmol siRNA per well
Time to read-out: 72 h or 96 h, depending on the cell culture
Challenge: rucaparib 20 µM (about IC30) or vehicle, present until read-out
Rucaparib or vehicle: Rucaparib
Cell line: OCI-C5x (clear cell)
Detection: 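Luminescent ATP-based viability assay read 72 or 96 h after transfection, depending on culture, given as normalised percent viability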
Direction: viability, normalised: higher = more viable cells remaining
Rule for the call: 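Active when normalised viability falls below 80 percent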
Calls: active = viability under 80%; inactive = viability 80% or more

gene	technical replicate	viability, normalised (%)	outcome
PRKAG3 (protein kinase AMP-activated non-catalytic subunit gamma 3)	1	55.9	active
PRKAG3 (protein kinase AMP-activated non-catalytic subunit gamma 3)	2	48.9	active
PRKAG3 (protein kinase AMP-activated non-catalytic subunit gamma 3)	3	51.9	active
YEATS4 (YEATS domain containing 4)	1	66.6	active
YEATS4 (YEATS domain containing 4)	2	49.3	active
YEATS4 (YEATS domain containing 4)	3	46.9	active
DQX1 (DEAQ-box RNA dependent ATPase 1)	1	33.8	active
DQX1 (DEAQ-box RNA dependent ATPase 1)	2	49.5	active
DQX1 (DEAQ-box RNA dependent ATPase 1)	3	61.5	active
PHKA2 (phosphorylase kinase regulatory subunit alpha 2)	1	57.7	active
PHKA2 (phosphorylase kinase regulatory subunit alpha 2)	2	72.6	active
PHKA2 (phosphorylase kinase regulatory subunit alpha 2)	3	80.5	inactive

Entries listed so far whose gene name starts with Y or y (3):
gene	technical replicate	viability, normalised (%)	outcome
YEATS4 (YEATS domain containing 4)	1	66.6	active
YEATS4 (YEATS domain containing 4)	2	49.3	active
YEATS4 (YEATS domain containing 4)	3	46.9	active

Additional records follow.
gene	technical replicate	viability, normalised (%)	outcome
CSNK1G3 (casein kinase 1 gamma 3)	1	52.9	active
CSNK1G3 (casein kinase 1 gamma 3)	2	50	active
CSNK1G3 (casein kinase 1 gamma 3)	3	39.2	active
POLG2 (DNA polymerase gamma 2, accessory subunit)	1	89.4	inactive
POLG2 (DNA polymerase gamma 2, accessory subunit)	2	93.8	inactive
POLG2 (DNA polymerase gamma 2, accessory subunit)	3	90.2	inactive
TP53RK (TP53 regulating kinase)	1	35.3	active
TP53RK (TP53 regulating kinase)	2	46.8	active
TP53RK (TP53 regulating kinase)	3	45.4	active
IFNAR1 (interferon alpha and beta receptor subunit 1)	1	48.8	active
IFNAR1 (interferon alpha and beta receptor subunit 1)	2	48.1	active
IFNAR1 (interferon alpha and beta receptor subunit 1)	3	45.5	active
